# Cleaved PARP in drug-treated melanoma cells

Values as published with doi:10.1371/journal.pone.0140310, rounded.

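The test systems are human melanoma cell lines, treated with two drugs together for 72 h and then stained and imaged. Each value is the cleaved-PARP-positive fraction of nuclei relative to DMSO-treated wells, in %, so that 100 equals the control and higher values mean more apoptosis. Every drug was used at one fixed concentration, the higher of two screened. These are primary screening values without error estimates. Basal and induced levels differ widely between cell lines.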
An unselected part of the screen is shown.

First drug in all entries: AS-252424, 5 µM, O=C1NC(=O)/C(=C/c2ccc(-c3ccc(F)cc3O)o2)S1

Second drug	SK-MEL-28	IPC-298	LB2518-MEL	A375	RVH-421
COCC[n+]1c2c(n(Cc3cnccn3)c1C)C(=O)c1ccccc1C2=O at 0.002 µM	56.0	99.6	71.5	33.3	131
Cn1cncc1[C@@](N)(c1ccc(Cl)cc1)c1ccc2c(c1)c(-c1cccc(Cl)c1)cc(=O)n2C at 0.05 µM	70.1	38.1	262	45.9	43.6
Cn1cc(C2=C(c3cn(C4CCN(Cc5ccccn5)CC4)c4ccccc34)C(=O)NC2=O)c2ccccc21 at 4 µM	359	127	364	125	108
CN(NC(=O)CC(=O)NN(C)C(=S)c1ccccc1)C(=S)c1ccccc1 at 0.03 µM	1060	54.4	210	26.5	98.0
Nc1ncn([C@H]2C[C@H](O)[C@@H](CO)O2)c(=O)n1 at 0.5 µM	46.9	243	128	59.8	111
C=CCn1c(=O)c2cnc(Nc3ccc(N4CCN(C)CC4)cc3)nc2n1-c1cccc(C(C)(C)O)n1 at 0.1 µM	132	161	268	232	109
CN(C)S(=O)(=O)c1ccc2c(c1)/C(=C/c1cc3c([nH]1)CCCC3)C(=O)N2 at 2 µM	28.1	86.9	98.5	43.3	107
CN(c1ncccc1CNc1nc(Nc2ccc3c(c2)CC(=O)N3)ncc1C(F)(F)F)S(C)(=O)=O at 0.4 µM	125	32.1	218	207	168
C=C(c1ccc(C(=O)O)cc1)c1cc2c(cc1C)C(C)(C)CCC2(C)C at 10 µM	123	142	56.3	15.3	31.7
COc1cc(N2CCC(N3CCN(C)CC3)CC2)ccc1Nc1ncc(Cl)c(Nc2ccccc2S(=O)(=O)C(C)C)n1 at 0.4 µM	75.5	147	124	25.0	53.0
Cn1cnc2c(F)c(Nc3ccc(Br)cc3Cl)c(C(=O)NOCCO)cc21 at 0.075 µM	62.0	194	260	765	149
Cn1c(Nc2ccc(C(F)(F)F)cc2)nc2cc(Oc3ccnc(-c4ncc(C(F)(F)F)[nH]4)c3)ccc21 at 0.4 µM	79.0	387	386	216	206
CCN(CC)CCCCNc1ncc2cc(-c3cc(OC)cc(OC)c3)c(NC(=O)NC(C)(C)C)nc2n1 at 0.5 µM	108	22.2	35.7	170	110
Cc1cc(Nc2cc(N3CCN(C)CC3)nc(/C=C/c3ccccc3)n2)n[nH]1 at 0.2 µM	88.8	113	52.8	102	61.4
Cn1c(=O)n(-c2ccc(C(C)(C)C#N)cc2)c2c3cc(-c4cnc5ccccc5c4)ccc3ncc21 at 0.02 µM	173	106	244	151	158
NCC(=O)Nc1ccc(-n2nc(C(F)(F)F)cc2-c2ccc3c(ccc4ccccc43)c2)cc1 at 5 µM	308	161	134	227	63.7
Oc1cc(-c2nc(-c3ccccc3)[nH]c2-c2ccncc2)ccc1Cl at 1 µM	211	62.9	83.7	818	74.6
COc1ccc2c(c1)CCC1C2CCC2(C)C(NCCCCCCN3C(=O)C=CC3=O)CCC12 (stereo not shown) at 2 µM	156	108	163	56.2	177
CC1(C)CCC(c2ccc(Cl)cc2)=C(CN2CCN(c3ccc(C(=O)NS(=O)(=O)c4ccc(N[C@H](CCN5CCOCC5)CSc5ccccc5)c(S(=O)(=O)C(F)(F)F)c4)cc3)CC2)C1 at 2 µM	273	279	786	408	133

2 of the entries, repeated:

{"second drug": "C=C(c1ccc(C(=O)O)cc1)c1cc2c(cc1C)C(C)(C)CCC2(C)C at 10 µM", "SK-MEL-28": 123, "IPC-298": 142, "LB2518-MEL": 56.3, "A375": 15.3, "RVH-421": 31.7}
{"second drug": "COCC[n+]1c2c(n(Cc3cnccn3)c1C)C(=O)c1ccccc1C2=O at 0.002 µM", "SK-MEL-28": 56.0, "IPC-298": 99.6, "LB2518-MEL": 71.5, "A375": 33.3, "RVH-421": 131}